# From PubChem BioAssay AID504834 (National Center for Advancing Translational Sciences (NCATS), 2011)
# Out of some 320,000 compounds screened, about 22,000 (6.9%) were called active. The shares of active, inactive and inconclusive entries below differ from those in the screen. The call rests on the fitted dose curve; in most records, active means well fitted inhibition curve with a large enough effect; inconclusive means small, poorly fitted or top-dose-only effect, or another doubt; inactive means no such curve, though single readings can be large or run the other way. Potencies of inconclusive entries are doubtful fits and often do not repeat.
# Assay: Primary qHTS for delayed death inhibitors of the malarial parasite plastid, 96 hour incubation
# Details: P. falciparum luciferase reporter growth; series mostly up to 28.7 µM
# Outline: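 Infected RBCs, 2% Hct / 0.05% parasitemia final; luciferase-reporter P. falciparum; cpd 96 h, 37 C, 5% CO2; luciferase detection reagent; luminescence.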
# Potency means the concentration at half of the fitted maximal effect.
row,SMILES,Potency
1,Cc1ccc(N2C(=O)CC(Sc3nc(C)cc(C)n3)C2=O)cc1 (stereo unspecified),"inconclusive: 18.5 µM [inhibitor, single point]"
2,CCOC(=O)c1c(N2C(=O)Nc3ccccc3N2O)sc2c1CCCCC2,"inconclusive: 18.5 µM [inhibitor, single point]"
3,Cc1c(CN2CCN(CC(C)(C)C)C(CCO)C2)[nH]c2ccccc12 (stereo unspecified),"inconclusive: 11.7 µM [inhibitor, partial curve, poor fit]"
4,CCC(=O)c1ccc(OCC(=O)OCC(=O)N2c3ccccc3CC2C)cc1 (stereo unspecified),inactive
5,O=C(Cn1ncc2c3ccccc3n(Cc3ccc(F)cc3)c2c1=O)N1CCC2(CC1)OCCO2,"inconclusive: 5.86 µM [inhibitor, partial curve, poor fit]"
6,CCCCNC(=O)NC1CCCC1,inactive
7,COc1ccc(N2CCN(C(=O)c3sc4ncn(CC(=O)N5CCCCC5C)c(=O)c4c3C)CC2)cc1 (stereo unspecified),"inconclusive: 10.4 µM [inhibitor, partial curve]"
8,Cc1ccc(S(=O)(=O)N(C)CC(=O)Nc2ccccc2)cc1,"inconclusive: 11.7 µM [inhibitor, partial curve]"
9,COC(=O)[C@]1(C)CCC[C@@]2(C)C3CC[C@@]4(C)C[C@]3(CCC21)CC(=O)N4Cc1ccc(OC)cc1 (stereo partly specified),active: 1.47 µM
10,Cc1ccc(/C=N/NC(=O)c2ccccn2)o1,"inconclusive: 18.5 µM [inhibitor, single point]"
11,Cc1ccc2cc(CN(Cc3nnnn3C3CCCCC3)CC3CCCO3)c(=O)[nH]c2c1 (stereo unspecified),inactive
12,Cc1ccc(N2C(=O)C(NC(=O)c3ccccc3F)(C(F)(F)F)C3=C2CC(C)(C)CC3=O)cc1 (stereo unspecified),"inconclusive: 18.5 µM [inhibitor, single point]"
13,CCOc1cc(C(=O)NC2=NCCS2)cc(OCC)c1OCC,inactive
14,COc1ccccc1N1CCN(CCN2C(=O)C3CCCN3C2=O)CC1 (stereo unspecified),"inconclusive: 18.5 µM [inhibitor, single point]"
15,Cc1cc(C)c(S(=O)(=O)Nc2cc(SCC(=O)O)c(O)c3ccccc23)cc1C,active: 2.62 µM
16,COc1ccc(-c2cc(C(=O)NC3CCCC3)no2)cc1OC,"inconclusive: 11.7 µM [inhibitor, single point]"
17,OC(CN1CCN(c2ncc(C(F)(F)F)cc2Cl)CC1)c1ccccc1 (stereo unspecified),"inconclusive: 10.4 µM [inhibitor, single point]"
18,O=C(Nc1ccccc1)c1ccc(-c2ccc(Br)cc2)o1,inactive
19,CCN(CC)CCCNC(=O)c1ccc2c(=O)n(Cc3ccc4c(c3)OCO4)c(=S)[nH]c2c1,"inconclusive: 18.5 µM [inhibitor, single point]"
20,Cc1cccc(NC(=S)NCCC(C)C)c1,active: 11.7 µM
21,O=C(CSc1nc(-c2ccc(F)cc2)cc(C(F)(F)F)n1)Nc1ccc2c(c1)OCO2,"inconclusive: 2.94 µM [inhibitor, partial curve]"
22,CC(=O)N1CCc2cc(S(=O)(=O)NC(C(=O)NC3CCCc4ccccc43)C(C)C)ccc21 (stereo unspecified),"inconclusive: 18.5 µM [inhibitor, single point]"
23,CSCCC(NC(=O)C1CCC(C)CC1)C(=O)NCCN1CCC(C)CC1 (stereo unspecified),"inconclusive: 11.7 µM [inhibitor, single point]"
24,O=C(Nc1ccccc1C(=O)Nc1ccccn1)c1ccc([N+](=O)[O-])cc1,"inconclusive: 2.08 µM [inhibitor, single point]"

# In a second layout: entries from further up.
row | SMILES | Potency
15 | Cc1cc(C)c(S(=O)(=O)Nc2cc(SCC(=O)O)c(O)c3ccccc23)cc1C | active: 2.62 µM
16 | COc1ccc(-c2cc(C(=O)NC3CCCC3)no2)cc1OC | inconclusive: 11.7 µM [inhibitor, single point]
17 | OC(CN1CCN(c2ncc(C(F)(F)F)cc2Cl)CC1)c1ccccc1 (stereo unspecified) | inconclusive: 10.4 µM [inhibitor, single point]
18 | O=C(Nc1ccccc1)c1ccc(-c2ccc(Br)cc2)o1 | inactive

# The listing continues:

row,SMILES,Potency
1,Cc1ccc(S(=O)(=O)Nc2cccc(C(=O)N3CCCC3)c2)cc1F,inactive
2,Cc1cccc(N2CCN(c3ccc4cc(S(=O)(=O)N5CCCCC5)ccc4n3)CC2)c1C,"inconclusive: 18.5 µM [inhibitor, single point]"
3,COCCn1c(SCC(=O)NC2CCCC2)nnc1-c1ccco1,"inconclusive: 7.38 µM [inhibitor, partial curve]"
4,CCOc1cccc2cc(C(=O)NC(C)c3ccccc3)c(=N)oc12 (stereo unspecified),"inconclusive: 18.5 µM [inhibitor, single point]"
5,COc1cccc(C(=O)N/N=C2/SCC(=O)N2CCc2ccc(OC)c(OC)c2)c1,"inconclusive: 2.33 µM [inhibitor, partial curve, poor fit]"
6,COc1ccc(Cl)cc1NC(=O)CN1CCCCCC1,"inconclusive: 9.28 µM [inhibitor, partial curve, poor fit]"
7,COC(=O)CSc1nc2ccccc2o1,inactive
8,CCn1c(COc2cc(C)ccc2C(C)C)nnc1SCC(=O)Nc1nccs1,inactive
9,COc1ccc(C2=CC(=O)CC(C)(C)C2)cc1OC,"inconclusive: 2.33 µM [inhibitor, single point]"
10,CSc1c(CC(=O)Nc2ccccc2C(F)(F)F)n(Cc2ccccc2)c2ccccc12,active: 9.28 µM
11,C/C(=N/NC(=O)CNS(=O)(=O)c1ccccc1)c1ccc(Br)cc1,active: 13.1 µM
12,Cc1cc(C)n2c(SCC(=O)Nc3ccccc3)nnc2n1,inactive
13,CCN1CCN(C(=O)CCc2nnc(CCCCc3ccccc3)o2)[C@@H](C)C1=O,"inconclusive: 11.7 µM [inhibitor, single point]"
14,COc1ccc(N2CCN(C(c3cccs3)C(C)NS(=O)(=O)c3ccccc3)CC2)cc1 (stereo unspecified),"inconclusive: 9.28 µM [inhibitor, partial curve]"
15,CCOC(=O)c1ccc(NC(=O)C2(c3ccc(OC)cc3)CCCC2)cc1,"inconclusive: 0.131 µM [inhibitor, full curve, poor fit]"
16,CCOc1ccc(NC(=O)CSc2nnc(CNC(=O)c3cccs3)o2)cc1,"inconclusive: 0.0033 µM [inhibitor, full curve, poor fit]"
17,COc1ccc2c(c1)OC(O)(C(F)(F)F)CC2=O (stereo unspecified),"inconclusive: 0.0738 µM [inhibitor, full curve, poor fit]"
18,Cc1ccc(CNc2nc(C)c(C(=O)N(C)C)s2)cc1,inactive
19,CCC(C)Sc1nc2c(c(=O)n1C)SC(C)C2 (stereo unspecified),inactive
20,Cc1ccc(C(=O)N[C@H](C(=O)N2CCN(c3ccccc3F)CC2)C(C)C)cc1,"inconclusive: 18.5 µM [inhibitor, single point]"
21,COCCN(C(=O)CSc1nc2ccccc2o1)c1c(N)n(Cc2ccccc2)c(=O)[nH]c1=O,"inconclusive: 16.5 µM [inhibitor, partial curve, poor fit]"
22,O=[N+]([O-])c1ccc(/C=N/n2c(CO)nc3ccccc32)s1,"inconclusive: 18.5 µM [inhibitor, single point]"
23,CCOC(=O)C(Oc1ccc2c(-c3ccc(OC)cc3)cc(=O)oc2c1C)c1ccccc1 (stereo unspecified),inactive
24,Cc1ccnc(NC(=O)CCNC(=O)c2ccccc2Cl)c1,inactive

row,SMILES,Potency
1,CCc1ccc2oc(C(=O)N3CCN(C)CC3)cc(=O)c2c1,"inconclusive: 2.33 µM [inhibitor, single point]"
2,CCN1/C(=C2/OC(=S)N(C)C2=O)Sc2ccccc21,inactive
3,COc1ccc(/C=C/c2ccccc2)cc1[C@H]1[C@H]2C=CC[C@@H](C)[C@@H]2C(=O)N1Cc1ccccc1,"inconclusive: 11.7 µM [inhibitor, single point]"
4,N#C/C(=C\c1ccc(-c2cccc([N+](=O)[O-])c2)o1)c1nnc(N2CCOCC2)n1-c1ccccc1,"inconclusive: 6.57 µM [inhibitor, partial curve, poor fit]"
5,CCn1c(Cc2ccccc2)nnc1SCC(=O)Nc1ccccc1O,inactive
6,CCCN1C2CCCC1CC(NC(=O)c1cccc([N+](=O)[O-])c1)C2 (stereo unspecified),"inconclusive: 7.38 µM [inhibitor, partial curve]"
7,CC(NC(=O)CNC(=O)c1ccc2c(c1)OCO2)c1ccc(S(N)(=O)=O)cc1 (stereo unspecified),inactive
8,C=CCNC(=O)Nc1cc(Cl)ccc1OC,"inconclusive: 10.4 µM [inhibitor, single point]"
9,O=C(O)c1ccc(CSc2ncn[nH]2)cc1,"inconclusive: 3.7 µM [inhibitor, partial curve, poor fit]"
10,Cc1cc(C)c(OCC(=O)Nc2ccc3c(c2)OCO3)cc1C,inactive
11,Cc1cc(C)n(-c2ccc(C(=O)Nc3nc4ccccc4s3)cc2)n1,inactive
12,CCN1CCN(Cc2ccc(NC(=O)c3cc(NC(=O)c4nccnc4N)cc(OC)c3)cc2C(F)(F)F)CC1,active: 1.47 µM
13,Cc1oc(-c2ccc(Cl)cc2)nc1CN1CCC(C(=O)NCc2cccnc2)CC1,inactive
14,CC(C)(Oc1ccc(Cl)cc1)C(=O)NCC(c1cccs1)N1CCOCC1 (stereo unspecified),"inconclusive: 8.28 µM [inhibitor, partial curve, poor fit]"
15,Cc1ccc(OCCNC(=O)c2ccccc2F)cc1,inactive
16,CCc1ccc(N(C(=O)c2ccoc2C)C(C(=O)NC2CCCC2)c2ccc(OC)cc2)cc1 (stereo unspecified),"inconclusive: 18.5 µM [inhibitor, single point]"
17,CC(=O)Nc1ccc2nc(-c3ccccn3)[nH]c2c1,"inconclusive: 10.4 µM [inhibitor, single point]"
18,Cc1ccc(S(=O)(=O)Nc2c(Cl)c(Cl)c(O)c3ccccc23)cc1,"inconclusive: 18.5 µM [inhibitor, single point]"
19,Cc1cccc(CNc2ncc(-c3cccc([N+](=O)[O-])c3)n2C)c1,"inconclusive: 3.29 µM [inhibitor, full curve]"
20,CC(C)C[C@H]1CN=C(Nc2ccccc2)N1CC1CCCCCC1,active: 10.4 µM
21,COc1ccc(C(=O)Nc2cc3c(oc2=O)CCCC3=O)cc1,inactive
22,Cc1cc(=O)oc2cc(OCCSc3nnc(-c4ccccc4)o3)ccc12,inactive
23,CCNS(=O)(=O)c1ccc(CCC(=O)NCCC2=CCCCC2)cc1,inactive

# 3 structures out of the list, sorted by molar mass, high to low.
row,SMILES,Potency
22,Cc1cc(=O)oc2cc(OCCSc3nnc(-c4ccccc4)o3)ccc12,inactive
19,Cc1cccc(CNc2ncc(-c3cccc([N+](=O)[O-])c3)n2C)c1,"inconclusive: 3.29 µM [inhibitor, full curve]"
2,CCN1/C(=C2/OC(=S)N(C)C2=O)Sc2ccccc21,inactive
